Source: PubChem BioAssay AID1508600 (Functional Genomics Laboratory (NCATS/FGL), 2020)
The whole screen tested about 53,000 sequences, of which about 3,700 (7%) were called active.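 Rule for the calls: active = gene knockdowns whose robust z-score for IL-1 alpha signal is at least 2 or at most -2, so actives lie on both sides; inactive = the rest.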 Some of the results follow.

Assay: Components of the Cytosolic LPS Sensing Pathway: Gene Identification via Genome-wide siRNA Screen;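 note: robust z of the log signal after scaling to non-targeting control siRNA wells of the plate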
Conditions: RAW264.7 macrophages, IL-1a HTRF, actives lie on both sides, screened at 100 nM (by protocol), cells primed 5 h with Pam3CSK4 first
Summary of the method: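 Supernatant IL-1a by HTRF from RAW264.7 cells primed with Pam3CSK4 (5 hours) and transfected with LipidA (24 hour) after 48h siRNA knockdown at 100 nM; cell viability checked with CellTiter-Glo.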

| Sequence | z-score |
| --- | --- |
| CCAUGGCAGGCAAUUUGAUTT against Olfr1254 | inactive: -0.174 |
| GAUGGAUCUUUAUAAGCAGTT against Wfdc18 | inactive: -0.768 |
| GGAGCAGCUGCACUUGUAUTT against Nkiras1 | inactive: -0.779 |
| CGUCUCUGAUAUUGUCGGCTT against Fbl | inactive: 1.14 |
| GCGAUGUUAGUAAUACAACTT against Six1 | inactive: 0.494 |
| GGCUCAGGCAUUGUCCUGUTT against Il10ra | inactive: -1.63 |
| GUAUAUCUUUGGCUGGGUGTT against Olfr460 | inactive: -0.388 |
| CGAGUUCAAACCGUCCUCUTT against Sdhc | inactive: 0.105 |
| CCCUAAAACCAGGUAUCAATT against Vdac1 | inactive: 0.208 |
| GACAGCAACGUGAAAUUAGTT against Xlr | inactive: -0.828 |
| GGGCUGCAUUACACAAAUGTT against Olfr1496 | inactive: 0.266 |
| CCGUCUGGCCAGUGAAAUUTT against 1700019D03Rik | inactive: 1.23 |
| CGUGCAAGCAGUGAUUUUGTT against Smpx | inactive: -1.33 |
| GGUUGCUUCCUCUUAAUUUTT against Eda | inactive: -0.183 |
| GCAGGUCAACUGUUUUAUCTT against Bcap31 | inactive: 1.06 |
| GGGUCAGAGUUUUUCCAUCTT against Otog | active: 2.72 |
| GGAUGUAAACGAAUGUGCUTT against Lrp4 | inactive: 0.74 |
| UACAGUAGAGUCAUUUUCUTT against Vmn1r179 | inactive: -0.47 |
| GCCCUUACCGAAGAAUUAATT against Lonrf2 | inactive: 0.531 |
| GCCUGGUGUAUGCUAAUGGTT against Kcp | inactive: 0.98 |
| GCACCUCUUGGACAAAAUUTT against Tsc1 | inactive: -1.59 |
| GGGUGGCAUCAUGCAAAGATT against Hdac8 | inactive: 1.4 |
| GGAAAAACUCCUUUUCCACTT against Shcbp1 | inactive: 0.292 |

| Sequence | z-score |
| --- | --- |
| GGUUUAAGAAUGAAGUGGATT against Mtmr3 | inactive: -1.18 |
| GGUUUUGGUCUCACUUUAATT against Magix | inactive: 0.237 |
| GCGACUCCUAUAAUUUCUATT against Rpa3 | active: -2.17 |
| GGGCCUUCACACUUCACUUTT against Ost4 | inactive: 0.125 |
| GCCGUCAGACAAGGAGGAATT against Magi1 | active: 2.43 |
| GGCCUGUCCAGUGAUGAUGTT against Paxbp1 | inactive: -1.79 |
| CCCUCUCUGGGACUACAUATT against Zfp395 | inactive: 0.00687 |
| GCAUGCGUGAGAAACUGAUTT against Clec2e | inactive: -0.152 |
| GGAGGAAGCCAUCAUCAUGTT against Ndufa13 | inactive: -1.59 |
| GGUAAAUCUCAGCUUUUCUTT against Pcdhga3 | inactive: 0.785 |
| GCUUGUGUCACCUACGGAATT against Mterf2 | inactive: 0.944 |
| GGCUACUCAGUCCUAAGCATT against Kcns2 | inactive: 0.268 |
| CCCAUAGCUGAGCCUAACUTT against Dab2 | inactive: -0.537 |
| GGAUGCAUGGCUCAAUAUUTT against Olfr1164 | active: 2.01 |
| CCUCAUUUCCAAACUCAAATT against Fbxw13 | inactive: -0.491 |
| GGAGGUCAGUGUGACUUCATT against Taf1c | inactive: -0.662 |
| GGCCCUCAUCUUCAACAAGTT against Erlin2 | inactive: -0.17 |
| GCAUCGCUAAUCCUGAGUUTT against Itgb2 | inactive: -0.461 |
| GGCAGAGAAAAGAAGAAGATT against Abcb4 | inactive: 1.59 |
| GGUUGCUAGUGCUAAGGACTT against Pdlim2 | inactive: 0.245 |
| GGUUUUGGGCACAGCUGGUTT against Cryz | inactive: -0.74 |
| GCGAGCCUUUGAGAAGAAUTT against Emx1 | inactive: -1.45 |
| GCUGUUCUAUCAGACCUUUTT against Cyp2b10 | inactive: -0.236 |

| Sequence | z-score |
| --- | --- |
| GGAUCGUUUCCUCUCAUCATT against Cd4 | inactive: -0.683 |
| GGAGCAUAAAAGAGAAAGATT against Jdp2 | inactive: -0.0101 |
| GCAGAGGGCAACUCGUAAGTT against Gm6034 | inactive: -0.843 |
| GGCAAAAUCGGAGACUUUCTT against Exosc10 | inactive: -0.623 |
| GCGGAGAGCGAUGAUCUUUTT against Pfkfb4 | inactive: 0.136 |
| CCUGCUCAACGGAGACCAUTT against Hmx3 | active: 3.47 |
| CGAGUGGCUUUUAAAAGGUTT against Slc10a7 | inactive: 0.128 |
| GGCCCACUUUAUCAUGAAUTT against Zpr1 | inactive: -0.585 |
| GGACUGUCCUCCAAUUUGCTT against Nat8f3 | active: -2.6 |
| GGCACACACUCCCUGACAATT against Cst3 | inactive: -0.863 |
| GGGUGCUUACAGAAUAUCUTT against Ms4a19 | inactive: 1.07 |
| CCUAAUGUACACUAACUAUTT against Hsd17b14 | inactive: 1.84 |
| GGGCCCAUCUUUUUCUACATT against Dpp7 | inactive: -0.0345 |
| GUGCCUUUGUGGUCUUCCUTT against Tmem179 | inactive: -1.16 |
| GGCUUAGUUGGCUAUUACATT against Tbc1d12 | inactive: 1.01 |
| GGCUCAGUUAAACUUACUGTT against Pak2 | inactive: 0.195 |
| GCCUGAUCUACUGUGGUCCTT against Olfr1347 | inactive: -0.167 |
| CGCACAUGUAGUUAAUAAATT against Iqcg | inactive: -0.96 |
| GCUUGAGCUUAUUAAUGUUTT against Anks1b | inactive: 0.708 |
| CCUUAAGAUGAGCAUUGCUTT against Chchd5 | inactive: -0.139 |
| GCUGAAUGCGACAUUUAUATT against Hk2 | inactive: 0.668 |
| GCUGGGAAAUCACACUAAGTT against Olfr1427 | inactive: 0.12 |
| GGAAGUCACUAAUGAAAUGTT against Tbx19 | inactive: 0.0557 |

Pulled one by one from the list above:

| Sequence | z-score |
| --- | --- |
| GCAGAGGGCAACUCGUAAGTT against Gm6034 | inactive: -0.843 |
| GUGCCUUUGUGGUCUUCCUTT against Tmem179 | inactive: -1.16 |
| GGCCCACUUUAUCAUGAAUTT against Zpr1 | inactive: -0.585 |
